By UniProt entry, the sequences of proteins in these tests, tags left out. Residues count along the entry.
UniProt P01106, 357-454: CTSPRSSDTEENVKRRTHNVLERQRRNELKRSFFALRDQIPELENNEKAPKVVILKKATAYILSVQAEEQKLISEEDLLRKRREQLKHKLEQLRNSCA

In patent US6017692:

Target: c-Myc bHLH-Zip (Homo sapiens) (UniProt P01106)
Experiment: EMSA
Settings: very small amount of complex c with 300 ng protein; 10 mM Tris pH 7.4, 80 mM NaCl, room temperature; purified recombinant protein; label: 32P 5' end

GGAAGCAGACCACGTGGTCTGCTTCC (double strand) [Myc-Max consensus site oligonucleotide]
binding result: binds more weakly

Weaker means in comparison with the reference protein, sequence or condition of that experiment.
